Assay results taken from publication PMC7819943, “Rice protein-binding microarrays: a tool to detect cis-acting elements near promoter regions in rice”.
This is one part of the list.

target: T1, OsSMF1 (Oryza sativa, UniProt Q6ZLB0 1-436); assay: protein-binding microarray (RPBM); PBS, 2% BSA, 51.3 ng/ul salmon testes DNA, 50 uM zinc acetate, 200 nM TF, 25 C, 1 h; high values mean tight binding; conditions: protein: recombinant; tags: N-terminal polyhistidine and DsRed monomer fusion (pET32a); chain copies: 2; label: CyDye5-dUTP incorporated in the synthesized complementary strand; 3' TTTTT single-stranded linker to array surface; dsDNA, one strand shown
T1 sequence: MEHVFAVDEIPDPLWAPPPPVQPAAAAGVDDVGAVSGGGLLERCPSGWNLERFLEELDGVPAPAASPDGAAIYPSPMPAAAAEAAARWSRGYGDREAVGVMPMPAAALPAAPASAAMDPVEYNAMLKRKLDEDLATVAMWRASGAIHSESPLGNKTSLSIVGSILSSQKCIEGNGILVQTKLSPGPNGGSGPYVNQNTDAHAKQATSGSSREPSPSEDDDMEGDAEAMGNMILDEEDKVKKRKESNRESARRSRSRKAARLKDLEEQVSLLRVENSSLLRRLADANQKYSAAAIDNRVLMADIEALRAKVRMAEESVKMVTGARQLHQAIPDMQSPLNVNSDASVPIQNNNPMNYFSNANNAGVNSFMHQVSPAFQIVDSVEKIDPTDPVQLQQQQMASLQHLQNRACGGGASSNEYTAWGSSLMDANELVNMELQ
Summary of the method: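 Ni–NTA purification followed expression in E. coli BL21-CodonPlus of transcription factors fused N-terminally to a polyhistidine tag and DsRed. At 200 nM in PBS with 2% BSA, salmon testes DNA and 50 µM zinc acetate, the protein was incubated for 1 h at 25 °C with a custom Agilent array that had been primer-extended with Cy5-dUTP and blocked with 2% BSA. After washing, the array was read on an Axon 4000B scanner. The binding signal is per-feature fluorescence intensity in arbitrary units.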

| Sequence | binding signal |
| --- | --- |
| TCGCGTGTGGGAACATACTTCACCATTATCAACTTCCATGCGGAGTCACCTAGTGCAG | 3660 fluorescence intensity (a.u.) |
| GGCAGGCGCACGGCGAAGACCTCCGCCATGTGGCGAGTGTCGGAGTCACCTAGTGCAG | 3260 fluorescence intensity (a.u.) |
| TCAGGATGACTCGAAGTCGAATCCGCGTAATACGCTGGCGCGGAGTCACCTAGTGCAG | 3370 fluorescence intensity (a.u.) |
| TCCATTTGGATGTAGCATTTTAGTCACCAGCCATTTTAGTCGGAGTCACCTAGTGCAG | 3210 fluorescence intensity (a.u.) |
| GCCGGTTTCGCACAACCGCCGCGTAGGATCGTCGTGTGAACGGAGTCACCTAGTGCAG | 6090 fluorescence intensity (a.u.) |
| TCCATCCATCGCAGCCGGTTTGTCCTCTGAAAAGCACGCACGGAGTCACCTAGTGCAG | 25000 fluorescence intensity (a.u.) |
| CACCGCCGAACGCACGATTTCTTCCCGACGCTGTCACTTGCGGAGTCACCTAGTGCAG | 4340 fluorescence intensity (a.u.) |
| AACGATCCATCGCTGGCGGCGGCGGCGGTGGCGAAGACCGCGGAGTCACCTAGTGCAG | 3150 fluorescence intensity (a.u.) |
| CGGCGAAACCAAACGCAGCCACGCCGGCACGGCACGCGCGCGGAGTCACCTAGTGCAG | 13600 fluorescence intensity (a.u.) |
| CTTCTGATCAGATTCAGATTGCCAACACTGCAACCTTCTGCGGAGTCACCTAGTGCAG | 3410 fluorescence intensity (a.u.) |
| TGTGTGTATAAATCTATGACAGGTGGGACCAGACGTTAATCGGAGTCACCTAGTGCAG | 3300 fluorescence intensity (a.u.) |
| CCGATCCACCCAACCAACCAAGCGCCCGCCGGCCTCGTCGCGGAGTCACCTAGTGCAG | 11800 fluorescence intensity (a.u.) |
| GTTCGGGTTGAGCTCACGCTCCTCAGATTTAATGACGAACCGGAGTCACCTAGTGCAG | 36400 fluorescence intensity (a.u.) |
| CGCCGCCGCCGCCGCCCGCGCGCGCGCGAGATCTCGCCGGCGGAGTCACCTAGTGCAG | 3140 fluorescence intensity (a.u.) |
| AATGGCTGTTTGTTCCTTGATTGCCACGTCTCTTTCCATCCGGAGTCACCTAGTGCAG | 4360 fluorescence intensity (a.u.) |
| TGCCCTTGCTGCGGGTGCAGAACTCCATCTGCTCCGGCGGCGGAGTCACCTAGTGCAG | 3980 fluorescence intensity (a.u.) |
| GCTTGCGTGCGCATGGCGTCAGCGTGACCGCCGCCGGCCGCGGAGTCACCTAGTGCAG | 6520 fluorescence intensity (a.u.) |
| AATAATAATTCTTATCGATTTACGTGTCATCGCAATATTTCGGAGTCACCTAGTGCAG | 6340 fluorescence intensity (a.u.) |
| GGGATTGGCCACGTCCACGTGTGGATTCTTTGCGTGCATCCGGAGTCACCTAGTGCAG | 7680 fluorescence intensity (a.u.) |
| ACCACCACGTAATAACACCGTAAGATCAACTCTAAGCTTTCGGAGTCACCTAGTGCAG | 6470 fluorescence intensity (a.u.) |
| TTAATCGTTGTCACATGTCAGCATCGTTGGTCATGGAATTCGGAGTCACCTAGTGCAG | 5090 fluorescence intensity (a.u.) |

| Sequence | binding signal |
| --- | --- |
| TGCATCCGCCCAGTTGCCACGCGCCCCTTTTAACTAAGACCGGAGTCACCTAGTGCAG | 3760 fluorescence intensity (a.u.) |
| TCACCGAGAGCCAGCCGGGACGACGGTGGCCCAAGCCGGGCGGAGTCACCTAGTGCAG | 4300 fluorescence intensity (a.u.) |
| CCTTACATGAGCCTCCTGTCTGTGTCATCACCACCTCCTCCGGAGTCACCTAGTGCAG | 7820 fluorescence intensity (a.u.) |
| CATCCCATGGCCGCCAGGTTATCCACATCATCCGCACCGGCGGAGTCACCTAGTGCAG | 6920 fluorescence intensity (a.u.) |
| CCAACAAACCCAGCGCATCCTCATCGTCGTCATCAGGAGACGGAGTCACCTAGTGCAG | 3390 fluorescence intensity (a.u.) |
| CCGCAGCCAATGATCCTGTAGAGGATGCCACCGTTGAAGACGGAGTCACCTAGTGCAG | 3420 fluorescence intensity (a.u.) |
| GTCAGCCACAGCCCCGACGAGACGAGAGACCTCTCCTCCGCGGAGTCACCTAGTGCAG | 9960 fluorescence intensity (a.u.) |
| TGTTCTAACAATAGCATTTCTTGCATTTAACTATGTTCCTCGGAGTCACCTAGTGCAG | 52900 fluorescence intensity (a.u.) |
| TACTTAATCCCATCGTCCATCCGCCATCTCATCTGATCTCCGGAGTCACCTAGTGCAG | 3930 fluorescence intensity (a.u.) |
| ACTCAGTGAGTCAAATCTGCCACATCAGTAGAAACCACTCCGGAGTCACCTAGTGCAG | 9900 fluorescence intensity (a.u.) |
| GTATTGTGTTCTGTTTTAGCTGACGTGACGCCTACGTGGTCGGAGTCACCTAGTGCAG | 11400 fluorescence intensity (a.u.) |
| CCCCAGCCGCTGCCGCTGCCATGTGCAATCATCCCCGCATCGGAGTCACCTAGTGCAG | 3510 fluorescence intensity (a.u.) |
| TATGTAAGAGTAGTATATGAGACTCTGACACGTACGCACACGGAGTCACCTAGTGCAG | 7540 fluorescence intensity (a.u.) |
| TGTGCAGTTTTGCTGTTTATGACTAGTTTACCTGTTGTCTCGGAGTCACCTAGTGCAG | 3250 fluorescence intensity (a.u.) |
| GAACAATCTGCCACGTCACACAAAACACCCTCTGGGAGGACGGAGTCACCTAGTGCAG | 11200 fluorescence intensity (a.u.) |
| TGTTCTTGCTACGCTGGGAGGGGAGGGGTGGCGCCGCGGCCGGAGTCACCTAGTGCAG | 4350 fluorescence intensity (a.u.) |
| ATAAGGCCCGAGGCCCGAAGGCCCGGCCCATGGCACGCCTCGGAGTCACCTAGTGCAG | 3270 fluorescence intensity (a.u.) |
| ATTGTTATATCTGTTGCTGGTAAGACCGTTGCCAGCGTGGCGGAGTCACCTAGTGCAG | 7900 fluorescence intensity (a.u.) |
| ACGGGACGGCCGACGGCGACGGCGCGACAGCGGCGGGCATCGGAGTCACCTAGTGCAG | 28000 fluorescence intensity (a.u.) |
| GCAGCAGCAGCTCATCTGCTGCTGACGCTGCCACCGGCACCGGAGTCACCTAGTGCAG | 7850 fluorescence intensity (a.u.) |
| GTCGTCGTCTACTTCGCTGCCGCGTCCTCCATCCTCCATGCGGAGTCACCTAGTGCAG | 5180 fluorescence intensity (a.u.) |

Looked up above.
Entry of GTATTGTGTTCTGTTTTAGCTGACGTGACGCCTACGTGGTCGGAGTCACCTAGTGCAG under binding signal: 11400 fluorescence intensity (a.u.)
Entry of CCGCAGCCAATGATCCTGTAGAGGATGCCACCGTTGAAGACGGAGTCACCTAGTGCAG under binding signal: 3420 fluorescence intensity (a.u.)
